Here are results for one molecule from publication PMC11091320.

These are yes or no findings as the source states them, for the method shown.

This assay addresses DinB homolog polymerase (Dbh), C31S form (Sulfolobus acidocaldarius) (UniProt Q4JB80). In words: dynamic light scattering; NMR protein samples diluted to 1.1-1.3 mg/mL in 50 mM sodium phosphate, 100 mM NaCl, pH 7.5; Malvern Zetasizer Nano; measured at 35°C, then at 5°C; both purified.

B1: DinB homolog polymerase (Dbh), C31S form (enzyme, UniProt Q4JB80 1-354)
chain: MIVIFVDFDYFFAQVEEVLNPQYKGKPLVVSVYSGRTKTSGAVATANYEARKLGVKAGMPIIKAMQIAPSAIYVPMRKPIYEAFSNRIMNLLNKHADKIEVASIDEAYLDVTNKVEGNFENGIELARKIKQEILEKEKITVTVGVAPNKILAKIIADKSKPNGLGVIRPTEVQDFLNELDIDEIPGIGSVLARRLNELGIQKLRDILSKNYNELEKITGKAKALYLLKLAQNKYSEPVENKSKIPHGRYLTLPYNTRDVKVILPYLKKAINEAYNKVNGIPMRITVIAIMEDLDILSKGKKFKHGISIDNAYKVAEDLLRELLVRDKRRNVRRIGVKLDNIIINKTNLSDFFDI
With B1, the binding entry was “no binding (tested: 1.1—1.3 mg/mL)”.
